# “Also recorded” adds a separate entry of the source. For at least one compound, name, drawing or mass did not settle the structure.
# How the values were obtained:
# HFD-fed obese mice = test: Body weight and food intake in high fat diet (HFD)-fed obese mice, daily i.p. injection; format: in vivo, C57Bl/6J mice; conditions: 15 mg/kg i.p. once per day, three weeks, vs DMSO vehicle
# Method: To investigate whether gambogic acid can act as an anti-obesity drug by increasing leptin sensitivity and reducing appetite, C57Bl/6J mice were placed on a high fat diet (HFD; Research Diets, D12451, 45 kcal % fat) feeding for 16 weeks. After establishment of obesity and leptin resistance, mice were administered gambogic acid (at 0.5 mg/kg, in 25 μl DMSO, once per day) and vehicle (DMSO, 25 μl) with intraperitoneal (i.p.) injection. The animals had free access to food and water unless otherwise stated. In all experiments, three days prior to drug administration, the animals went through an acclimation period where they were given DMSO (25 μl) to reduce the effect of stress created by i.p. injection. Following three days acclimation, mice were administered gambogic acid daily i.p. injections at 0.5 mg/kg for three weeks in 25 μl of DMSO as vehicle, whereas the control group received the same volume of DMSO. […] To investigate whether tanespimycin can act as an anti-obesity drug by increasing leptin sensitivity and reducing appetite, C57Bl/6J mice were placed on a high fat diet (HFD; Research Diets, D12451, 45 kcal % fat) feeding for 16 weeks. After establishment of obesity and leptin resistance, mice were administered tanespimycin (at 15 mg/kg, in 25 μl DMSO, once per day) and vehicle (DMSO, 25 μl) with intraperitoneal (i.p.) injection. […]
# lean mice = test: Body weight and food intake in 10-week old lean mice on chow diet, i.p. injection; format: in vivo; conditions: 15 mg/kg i.p., three weeks
# Method: Gambogic acid was administered to 10-week old lean mice on chow diet at 0.5 mg/kg for three weeks by i.p. injections. […] Tanespimycin was administered to 10-week old lean mice on chow diet at 15 mg/kg for three weeks by i.p. injections. […] NVP-AUY922 was administered to 10-week old lean mice on chow diet at 15 mg/kg for three weeks by i.p. injections.
structure (smiles),measurement,setting,value
C=CCNC1=C2C[C@@H](C)C[C@H](OC)[C@H](O)[C@@H](C)/C=C(\C)[C@H](OC(N)=O)[C@@H](OC)/C=C\C=C(/C)C(=O)NC(=CC1=O)C2=O [tanespimycin],body weight,HFD-fed obese mice,significantly decreased
same,food intake,lean mice,failed to induce bodyweight loss or food intake
same,body weight,lean mice; 15 mg/kg,little or no decrease; also recorded: failed to induce bodyweight loss
